Data from PubChem BioAssay AID2685 (National Center for Advancing Translational Sciences (NCATS), 2010).
Some of the results follow. These are further read-outs of the screen, such as a control signal, another cell line or another target. No call is given for them. The list favours compounds with an active or inconclusive main result. Potencies come from curve fits of mixed quality, noted in brackets.

Experiment: qHTS Assay for Lipid Storage Modulators in Drosophila S3 Cells;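 on cell number change: cells counted by Cell Tracker Red CMTPX staining in the red channel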
Conditions: BODIPY lipid droplet fluorescence, 18-24 h; for cell number change: measured here: cell count max response, cells fed with added oleic acid
Summary of the method: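 Laser-scanning cytometry quantifies lipid droplet accumulation (500–530 nm total intensity; droplet/cell object ratio) in oleic acid-fed (400 uM added) Drosophila S3 cells treated with a concentration series. 20 uM Triacsin C defined 100% inhibition.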

[1] = measured here: lipid fluorescence (Fed channel) AC50, cells fed with added oleic acid
[2] = measured here: cell number channel AC50, cells fed with added oleic acid

SMILES | cell number change [%] | AC50 [1] | AC50 [2]
O=C(CC(CC(=O)c1ccc(Br)cc1)c1cccnc1)c1ccc(Br)cc1 | -6.91 | 0.731 µM [rising, partial curve, poor fit] | –
O=C(Nc1cc(N2CCOCC2)ncn1)Nc1cccc2ccccc12 | -14 | – | –
Cc1c(Br)c([N+](=O)[O-])nn1CC(=O)Nc1ccc(Cc2ccncc2)cc1 | -31.2 | 20.6 µM [falling, partial curve, poor fit] | –
COc1cc(C(=O)Nc2nc(N)n(-c3ccccc3)n2)cc(OC)c1OC | 8.43 | 6.51 µM [rising, single point] | –
O=C(CN1CCOCC1)N1CCN(S(=O)(=O)c2ccccc2)C1c1ccccc1 (configuration not stated) | – | 2.06 µM [rising, partial curve] | 3.66 µM [falling, single point]
CCCCOc1ccc(C2(C(=O)O)CCCC2)cc1 | 3.38 | 29.1 µM [falling, single point] | –
COc1ccc(-c2c(C)nn3c(N4CCC5(CC4)OCCO5)cc(C)nc23)cc1OC | – | 0.0164 µM [rising, full curve, poor fit] | 0.461 µM [rising, partial curve, poor fit]
O=C(NN1CCOCC1)c1sc2cccc(F)c2c1Cl | 1.67 | 6.51 µM [falling, single point] | –
CCOc1ccc(OCc2nnc(SCC(=O)NC3CCS(=O)(=O)C3)n2-c2ccc(Cl)cc2)cc1 (configuration not stated) | -55 | 29.1 µM [falling, single point] | 29.1 µM [falling, single point]
O=C(N/N=C/c1ccncc1)c1cccc(N/N=C/c2ccncc2)c1 | 26.6 | 29.1 µM [rising, partial curve] | –
CCCCn1c(N)c(N(CC(C)C)C(=O)c2cccc(-n3cnnn3)c2)c(=O)[nH]c1=O | -29.9 | 18.4 µM [falling, partial curve, poor fit] | –
O=C(NCc1nc2ccccc2[nH]1)c1ccco1 | 4.03 | 0.58 µM [falling, full curve] | –
CC1CCN(S(=O)(=O)N2CCC(C(=O)N3CCC(N(C)CC4CCCO4)CC3)CC2)CC1 (configuration not stated) | 8.13 | 4.11 µM [rising, single point] | –
O=[N+]([O-])/C=C/c1cc2ccccc2[nH]1 | -34.7 | 9.2 µM [falling, partial curve] | 11.6 µM [falling, partial curve]
O=C(CCCc1c[nH]c2ccccc12)N1CCN(S(=O)(=O)c2cccs2)CC1 | 0.632 | 1.64 µM [rising, partial curve] | 1.64 µM [rising, partial curve, poor fit]

A second format for 2 compounds above:

| SMILES | cell number change [%] | AC50 [1] | AC50 [2] |
| --- | --- | --- | --- |
| O=C(NN1CCOCC1)c1sc2cccc(F)c2c1Cl | 1.67 | 6.51 µM [falling, single point] | – |
| CCOc1ccc(OCc2nnc(SCC(=O)NC3CCS(=O)(=O)C3)n2-c2ccc(Cl)cc2)cc1 (configuration not stated) | -55 | 29.1 µM [falling, single point] | 29.1 µM [falling, single point] |
